PubChem BioAssay AID2685 (National Center for Advancing Translational Sciences (NCATS), 2010)
In all, about 320,000 compounds went through this assay and about 2,100 (0.66%) were called active. The shares of active, inactive and inconclusive entries below differ from those in the screen. Calls follow the shape of the dose curve; as a rule, active = well fitted inhibition curve with a large enough effect in the signal ratio, with a control signal flat (not every such curve was filed as active); inconclusive = small, poorly fitted or top-dose-only effect, or effect the other way, or a change in a side signal; inactive = flat fitted curve, though single readings scatter; the % refers to the signal ratio. Where the call is inconclusive, the potency comes from a doubtful curve fit.

Test: qHTS Assay for Lipid Storage Modulators in Drosophila S3 Cells
Settings: BODIPY lipid droplet fluorescence, 18-24 h, cells fed with added oleic acid; lipid storage change, negative = inhibition: at 46.1 µM (top of the series) unless noted
How it was run: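 Laser-scanning cytometry quantifies lipid droplet accumulation (500–530 nm total intensity; droplet/cell object ratio) in oleic acid-fed (400 uM added) Drosophila S3 cells treated with a concentration series. 20 uM Triacsin C defined 100% inhibition.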
% is scaled to controls: 0 for no effect and ±100 for the full control effect; potency is read from the fitted curve at half-maximal effect.

Structure (SMILES)	lipid storage change, negative = inhibition	Potency
CC(=O)Nn1c(-c2ccccc2)cc2ccccc21	inconclusive: 24.9%	
Cc1ccc(S(=O)(=O)Nc2cccc(-c3ccc4nncn4n3)c2)cc1	inactive: -0.542% [at 0.0737 µM]	
COc1ccc(N2CCN(C3CCCN(C(=O)CN4CCCC4=O)C3)CC2)cc1 (centres undefined)		inconclusive: 14.6 µM [activator, partial curve]
COc1ccc(/C=C/C(=O)c2ccc3c(c2)OCO3)c(OC)c1		inconclusive: 1.46 µM [activator, partial curve]
Cc1ccc(C(CNS(=O)(=O)c2ccc(C)cc2)N2CCN(C)CC2)cc1 (centres undefined)	inconclusive: 31.9% [activator] [at 0.0737 µM]	
COc1ccccc1NC(=O)N1CCN(c2cc(-c3ccccc3)nc3ncnn23)CC1	inconclusive: 5.29%	
CCn1cc(C2=NOC(C(=O)Nc3ccccc3C(=O)OC)C2)c(C)n1 (centres undefined)	inconclusive: -14.6%	
C[C@H](CCCC/C=C/C(=O)O)O[C@@H]1O[C@@H](C)[C@H](O)C[C@H]1O	inconclusive: 2.69%	
COc1ccc(N2C(=O)CC(Cc3ccccc3)C2=O)cc1 (centres undefined)	inconclusive: 5.37%	
CN1CCN(c2nc3c(c(=O)[nH]c(=O)n3C)n2Cc2ccc([N+](=O)[O-])cc2)CC1		inconclusive: 29.1 µM [activator, single point]
Cc1ccc(CNS(=O)(=O)c2ccc(-n3cnnn3)c(C)c2)cc1		inconclusive: 0.164 µM [activator, partial curve, poor fit]
CCOC(=O)c1[nH]c2cc3c(cc2c1NC(=O)CN1CCC2(CC1)OCCO2)OCO3	inconclusive: 11.8%	
O=C(CCN1C(=O)C2C3C=CC(C4CC34)C2C1=O)OCC(=O)c1ccccc1 (centres undefined)		inconclusive: 29.1 µM [falling, single point]
CCN(c1ccc(OC)cc1)S(=O)(=O)c1nnc(NC(=O)c2ccc(C)cc2)s1	inconclusive: 34.7%	
CSc1nnnn1-c1ccc(C)c(Cl)c1	inconclusive: 27%	
COc1ccc(C2CC(c3ccc(Br)cc3)=NN2C(=O)c2cccnc2)cc1 (centres undefined)	inconclusive: -16.7%	
CN(Cc1ccccc1C#N)S(=O)(=O)c1cccs1	inconclusive: 61.9%	
Cc1ccc(C(=O)Nc2ccnc(-c3cccnc3)n2)cc1	inconclusive: 7.25%	
CSc1cccc(NC(=O)C2C3C=CC4(O3)C2C(=O)N(CCN2CCOCC2)C4C(=O)NC2CCCCC2)c1 (centres undefined)		inconclusive: 9.2 µM [activator, partial curve, poor fit]
O=[N+]([O-])c1cc(Br)c(OCc2nnc(-c3ccccc3)o2)c(Br)c1	inconclusive: 22.7%	
Cc1nc2scc(C)n2c(=O)c1S(=O)(=O)Nc1ccc(N2CCOCC2)cc1	inconclusive: 20.5%	
COc1ccc(NC(=S)N(CCc2c(C)[nH]c3ccc(C)cc23)Cc2ccco2)cc1		inconclusive: 1.03 µM [activator, full curve]
CNC(=S)Nc1ccc(C)cc1	inconclusive: -15.1%	
COc1ccc(/C=C(/NC(=O)c2ccc(OC)c(OC)c2)C(=O)NCCCn2ccnc2)cc1		inconclusive: 0.184 µM [activator, full curve]
O=S(=O)(c1ccccc1)N1CCN(c2ncccn2)CC1		inconclusive: 0.0731 µM [activator, partial curve]

Laid out differently: entries from further up

| Structure (SMILES) | lipid storage change, negative = inhibition | Potency |
| --- | --- | --- |
| Cc1ccc(C(=O)Nc2ccnc(-c3cccnc3)n2)cc1 | inconclusive: 7.25% |  |
| CSc1cccc(NC(=O)C2C3C=CC4(O3)C2C(=O)N(CCN2CCOCC2)C4C(=O)NC2CCCCC2)c1 (centres undefined) |  | inconclusive: 9.2 µM [activator, partial curve, poor fit] |

Continued.

Structure (SMILES)	lipid storage change, negative = inhibition	Potency
O=c1c(/C=N/N2CCOCC2)c(C(F)(F)F)[nH]n1-c1ccccc1	inconclusive: -10.8%	
CC/C(=N/Nc1ccccc1C)c1cnnc(SC)n1	inconclusive: -29.1%	
O=[N+]([O-])c1ccc2nc(-c3ccccc3)[nH]c2c1	inconclusive: 22.3%	
N#Cc1cn(CCOC(=O)c2cccc(C(F)(F)F)c2)c(=O)[nH]c1=O	inconclusive: 55.7%	
O=[N+]([O-])c1cccc(S(=O)(=O)NCC2CCCO2)c1 (centres undefined)	inconclusive: 14.4%	
Nc1nc(-c2cccnc2)nn1C(=O)c1ccc(Cl)cc1	inconclusive: 2.4%	
O=C1Cn2c(nc3ccccc32)N1c1cccc(C(F)(F)F)c1	inconclusive: 30.8%	
Cc1ccc(NC(=O)CN2C(=O)S/C(=C\c3ccc(OCC(=O)O)c(Br)c3)C2=O)cc1	inconclusive: 32.5%	
CCC(C)OC(=O)C1=C(C)NC(=O)CC1c1ccccc1OC (centres undefined)		inconclusive: 0.731 µM [activator, partial curve, poor fit]
CC1([N+](=O)[O-])COC2(OC1)C(=O)Nc1ccccc12 (centres undefined)	inconclusive: 7.08%	
CCOC(=O)C1CCN(C(=O)CCNC(=O)Cn2ccc3ccccc3c2=O)CC1	inactive: 5.32%	
Cc1ccc(NC(=O)CSc2nc(N)cc(=O)[nH]2)cc1Cl	inactive: -14.5%	
Cc1cc(Nc2ccc(F)c(F)c2)nc(-c2ccccc2O)n1	inactive: -1.55%	
O=C(CCN1C(=O)C2CC=C(Cl)CC2C1=O)N1CCCCC1 (centres undefined)	inconclusive: -57.8%	
O=C(NC1CCS(=O)(=O)C1)Oc1ccc(Cl)cc1 (centres undefined)	inconclusive: 0.46%	
CCN(CC(=O)Nc1ccc(OC)cc1)CC(=O)Nc1ccc2c(c1)OCO2		inconclusive: 20.6 µM [activator, single point]
CC(OC(=O)c1ccc(S(=O)(=O)N2CCOCC2)cc1)c1ccccc1 (centres undefined)	inconclusive: 15.9%	
Cc1cc(C)cc(NC(=O)c2ccc(CNc3c(N4CCOCC4)c(=O)c3=O)cc2)c1	inconclusive: -3.92%	
COc1cccc(/C=C/C(=O)OCC(=O)NCCc2ccccc2)c1	inconclusive: -4.12%	
O=C(O)CCn1cc(/C=C/C(=O)c2ccc(Cl)cc2)c(-c2ccc(Br)cc2)n1	inconclusive: -24%	
CCC(C)CCN1C(Nc2ccccc2)=NC[C@@H]1C (some centres undefined)	inconclusive: -49.3%	
Cc1nn2c(-c3ccccc3)c(-c3ccccc3)nc2[nH]c1=O		inconclusive: 29.1 µM [activator, single point]
CCc1c(C#N)c(SCc2c(C)noc2C)nc2c1C(=O)CC(C)(C)C2	inconclusive: 27.7%	
COc1cc2c(cc1OC)C(COc1ccc([N+](=O)[O-])cc1)N(C(C)=O)CC2 (centres undefined)	inconclusive: -39.1%	
